According to publication PMC5862815:
These are yes or no findings as the source states them, for the method shown. Binding seen in cells or lysates may run through a third protein. Some binding calls cover weakened binding; strength is not graded here. Sequences can lack the tags named with a protein.

Protein sequences, listed by entry. Tags and fused reporters are not part of them.
UniProt Q38912: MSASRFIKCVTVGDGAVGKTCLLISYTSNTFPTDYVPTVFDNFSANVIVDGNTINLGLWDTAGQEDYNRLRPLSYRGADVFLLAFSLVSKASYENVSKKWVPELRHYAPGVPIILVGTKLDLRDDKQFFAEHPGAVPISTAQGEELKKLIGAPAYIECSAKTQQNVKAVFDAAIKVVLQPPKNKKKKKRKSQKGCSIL

Molecular target: T1, MBP-RIC1 (Arabidopsis thaliana) (UniProt F4IVV0)
T1 sequence: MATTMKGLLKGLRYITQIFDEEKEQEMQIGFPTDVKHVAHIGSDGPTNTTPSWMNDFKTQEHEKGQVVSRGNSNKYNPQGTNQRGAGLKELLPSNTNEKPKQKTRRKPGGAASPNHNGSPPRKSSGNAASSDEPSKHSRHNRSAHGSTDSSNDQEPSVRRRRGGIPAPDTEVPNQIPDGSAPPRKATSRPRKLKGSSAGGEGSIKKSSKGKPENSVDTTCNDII
Assay: pull-down; MBP-RIC1-conjugated agarose beads incubated with extract of 35S::GFP-ROP6 seedlings (treated with indicated amounts of PG or without PG for 48 h) at 4°C for 3 h; washed five times; bound GFP-ROP6 detected by anti-GFP immunoblot; only the target purified

**Q.** With “GFP-tagged ROP6 (AtROP6) (from UniProt Q38912 1-198)” as the substance, how does the binding read?
**A.** Its binding is “binds”.
